Some of the results follow.
How the values were obtained:
Assay in all cases: log2 fold change, soluble protein after heating vs DMSO (PISA); higher = thermal stabilisation; K562 lysate, 10 uM; active = over 0.2 and 3.5 SD of the protein, either way, in both replicates (recomputed)
ibrutinib = compound: C=CC(=O)N1CCC[C@@H](n2nc(-c3ccc(Oc4ccccc4)cc3)c3c(N)ncnc32)C1 [ibrutinib]
Outline: (§1)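 To prepare the extract, K562 pellets were dounce-homogenised in PBS pH 7.4 with 1 mM MgCl2, giving crude material at 1 mg/mL protein. This was treated with 10 μM compound for 30 min, then heated in aliquots for 3 min over 48°C-58°C before pooling and addition of NP-40 to 0.5% at 4°C. Centrifugation at 21,000xg for 90 min left soluble protein in the supernatant, which TMTpro 16plex LC-MS/MS quantified with equalised channel sums. Results are log-two fold changes in thermal stability compared with solvent controls, from duplicates.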

By UniProt entry, the sequences of proteins in these tests, tags left out. Where a name states a change or a piece, a line headed by the entry shows the natural chain unless it says otherwise.
UniProt Q99808: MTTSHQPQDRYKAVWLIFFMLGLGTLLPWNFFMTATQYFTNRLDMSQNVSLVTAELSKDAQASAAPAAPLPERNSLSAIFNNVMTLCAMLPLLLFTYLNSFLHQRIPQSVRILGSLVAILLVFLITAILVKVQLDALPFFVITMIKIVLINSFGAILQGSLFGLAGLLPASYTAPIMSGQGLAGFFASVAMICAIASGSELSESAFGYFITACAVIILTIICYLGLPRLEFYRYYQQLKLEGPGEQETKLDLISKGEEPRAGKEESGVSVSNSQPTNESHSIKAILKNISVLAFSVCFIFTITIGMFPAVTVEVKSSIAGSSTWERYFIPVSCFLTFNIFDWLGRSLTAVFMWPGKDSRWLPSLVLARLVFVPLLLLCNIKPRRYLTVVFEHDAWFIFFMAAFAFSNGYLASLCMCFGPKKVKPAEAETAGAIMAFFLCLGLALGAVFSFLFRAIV
UniProt Q6KCM7: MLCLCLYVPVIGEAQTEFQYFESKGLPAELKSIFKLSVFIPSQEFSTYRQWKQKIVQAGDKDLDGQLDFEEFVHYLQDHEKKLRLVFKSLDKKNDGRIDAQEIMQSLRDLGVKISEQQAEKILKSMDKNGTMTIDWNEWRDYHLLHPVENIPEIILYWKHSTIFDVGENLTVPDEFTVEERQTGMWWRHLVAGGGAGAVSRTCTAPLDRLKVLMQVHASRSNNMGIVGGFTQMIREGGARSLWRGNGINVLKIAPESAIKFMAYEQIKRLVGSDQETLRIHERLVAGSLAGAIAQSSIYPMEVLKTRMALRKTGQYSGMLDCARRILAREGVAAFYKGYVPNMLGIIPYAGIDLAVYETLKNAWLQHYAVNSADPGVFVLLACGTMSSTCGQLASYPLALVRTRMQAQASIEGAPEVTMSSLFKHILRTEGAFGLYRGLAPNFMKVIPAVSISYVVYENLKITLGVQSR
UniProt P05141: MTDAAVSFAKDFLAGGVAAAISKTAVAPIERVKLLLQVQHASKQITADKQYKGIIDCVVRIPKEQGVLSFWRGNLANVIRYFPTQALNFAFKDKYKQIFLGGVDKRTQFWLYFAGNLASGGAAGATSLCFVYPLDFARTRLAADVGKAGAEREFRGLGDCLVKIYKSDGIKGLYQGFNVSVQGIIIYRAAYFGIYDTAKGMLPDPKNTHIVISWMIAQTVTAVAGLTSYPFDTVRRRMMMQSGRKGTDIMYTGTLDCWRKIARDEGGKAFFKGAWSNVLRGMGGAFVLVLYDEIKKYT
UniProt Q96CW6: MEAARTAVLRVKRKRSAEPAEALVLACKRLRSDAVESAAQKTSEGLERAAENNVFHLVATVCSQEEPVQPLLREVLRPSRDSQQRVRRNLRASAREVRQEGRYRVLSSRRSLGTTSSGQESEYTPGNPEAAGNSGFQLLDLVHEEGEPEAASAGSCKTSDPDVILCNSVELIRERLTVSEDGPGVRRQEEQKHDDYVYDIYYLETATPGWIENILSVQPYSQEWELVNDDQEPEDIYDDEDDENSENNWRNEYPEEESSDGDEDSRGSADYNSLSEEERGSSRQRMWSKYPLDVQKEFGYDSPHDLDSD
UniProt Q6XR72: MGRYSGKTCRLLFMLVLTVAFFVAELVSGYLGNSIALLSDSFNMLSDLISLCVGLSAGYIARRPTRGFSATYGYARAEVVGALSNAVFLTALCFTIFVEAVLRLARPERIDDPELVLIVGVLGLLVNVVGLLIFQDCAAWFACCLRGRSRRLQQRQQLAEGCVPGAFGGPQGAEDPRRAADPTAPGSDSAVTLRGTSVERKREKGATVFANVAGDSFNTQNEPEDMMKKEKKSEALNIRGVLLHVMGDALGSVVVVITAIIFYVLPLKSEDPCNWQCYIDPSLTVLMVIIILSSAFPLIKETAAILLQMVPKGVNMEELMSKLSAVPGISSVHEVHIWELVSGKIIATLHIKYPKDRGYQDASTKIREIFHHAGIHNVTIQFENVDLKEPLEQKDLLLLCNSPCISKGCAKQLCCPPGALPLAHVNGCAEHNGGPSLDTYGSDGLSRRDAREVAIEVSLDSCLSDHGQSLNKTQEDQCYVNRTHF
UniProt O14975, whole entry, looked up: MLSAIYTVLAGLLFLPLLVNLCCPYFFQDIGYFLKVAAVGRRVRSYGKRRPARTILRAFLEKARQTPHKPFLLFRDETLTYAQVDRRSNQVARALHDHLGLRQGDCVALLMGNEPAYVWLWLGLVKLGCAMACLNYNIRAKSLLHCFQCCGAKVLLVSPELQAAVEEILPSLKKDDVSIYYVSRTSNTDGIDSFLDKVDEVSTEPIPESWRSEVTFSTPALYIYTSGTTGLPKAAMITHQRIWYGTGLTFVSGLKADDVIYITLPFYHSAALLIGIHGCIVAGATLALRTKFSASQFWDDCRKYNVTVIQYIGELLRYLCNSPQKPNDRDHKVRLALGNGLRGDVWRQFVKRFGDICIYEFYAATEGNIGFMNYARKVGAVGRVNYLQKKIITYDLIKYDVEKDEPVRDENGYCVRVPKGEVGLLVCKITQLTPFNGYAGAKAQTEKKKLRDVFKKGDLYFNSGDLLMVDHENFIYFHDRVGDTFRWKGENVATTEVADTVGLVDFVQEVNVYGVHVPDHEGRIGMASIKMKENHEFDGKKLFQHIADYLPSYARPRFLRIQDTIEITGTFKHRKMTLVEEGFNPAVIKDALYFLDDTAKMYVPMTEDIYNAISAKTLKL
UniProt Q8TBP6: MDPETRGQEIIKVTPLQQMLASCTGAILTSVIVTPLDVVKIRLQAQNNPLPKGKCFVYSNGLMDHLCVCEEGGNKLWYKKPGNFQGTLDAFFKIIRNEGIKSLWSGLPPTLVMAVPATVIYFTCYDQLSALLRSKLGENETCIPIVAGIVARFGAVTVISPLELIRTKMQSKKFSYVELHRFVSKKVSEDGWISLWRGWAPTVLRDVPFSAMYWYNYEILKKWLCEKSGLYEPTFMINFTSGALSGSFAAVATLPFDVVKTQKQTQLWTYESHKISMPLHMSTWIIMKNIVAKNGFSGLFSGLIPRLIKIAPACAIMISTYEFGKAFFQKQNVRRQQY
UniProt P52569: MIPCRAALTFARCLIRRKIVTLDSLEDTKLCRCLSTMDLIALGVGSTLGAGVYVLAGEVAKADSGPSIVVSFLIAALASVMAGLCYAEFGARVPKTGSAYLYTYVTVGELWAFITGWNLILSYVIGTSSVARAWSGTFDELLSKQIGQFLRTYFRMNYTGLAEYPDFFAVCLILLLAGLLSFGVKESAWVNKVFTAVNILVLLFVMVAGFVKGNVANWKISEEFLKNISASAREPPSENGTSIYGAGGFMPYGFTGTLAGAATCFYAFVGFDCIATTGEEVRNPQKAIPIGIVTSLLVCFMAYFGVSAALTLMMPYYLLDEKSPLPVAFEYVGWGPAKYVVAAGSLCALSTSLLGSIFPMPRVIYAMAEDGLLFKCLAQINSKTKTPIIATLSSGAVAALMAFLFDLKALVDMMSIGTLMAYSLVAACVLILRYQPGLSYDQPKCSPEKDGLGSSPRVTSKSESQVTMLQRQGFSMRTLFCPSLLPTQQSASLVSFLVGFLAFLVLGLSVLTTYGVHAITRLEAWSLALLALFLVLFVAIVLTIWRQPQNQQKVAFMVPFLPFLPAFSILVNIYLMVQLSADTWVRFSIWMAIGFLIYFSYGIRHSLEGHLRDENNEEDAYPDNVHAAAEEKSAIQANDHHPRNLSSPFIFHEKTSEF
UniProt O00400: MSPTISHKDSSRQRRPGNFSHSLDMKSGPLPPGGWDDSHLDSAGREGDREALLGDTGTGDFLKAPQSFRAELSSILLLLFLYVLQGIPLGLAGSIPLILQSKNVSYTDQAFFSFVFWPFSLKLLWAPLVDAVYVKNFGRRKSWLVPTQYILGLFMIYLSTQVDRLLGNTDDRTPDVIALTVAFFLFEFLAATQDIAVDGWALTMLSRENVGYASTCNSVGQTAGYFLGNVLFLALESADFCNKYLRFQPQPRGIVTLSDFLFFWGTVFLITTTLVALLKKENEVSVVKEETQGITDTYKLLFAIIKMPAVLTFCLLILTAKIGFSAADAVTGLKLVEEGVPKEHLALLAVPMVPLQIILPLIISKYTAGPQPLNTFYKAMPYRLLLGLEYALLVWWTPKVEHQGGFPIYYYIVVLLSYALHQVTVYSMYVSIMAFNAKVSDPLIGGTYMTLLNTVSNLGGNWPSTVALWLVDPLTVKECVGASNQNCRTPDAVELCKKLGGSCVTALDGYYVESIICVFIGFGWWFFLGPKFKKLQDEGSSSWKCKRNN
UniProt O43808: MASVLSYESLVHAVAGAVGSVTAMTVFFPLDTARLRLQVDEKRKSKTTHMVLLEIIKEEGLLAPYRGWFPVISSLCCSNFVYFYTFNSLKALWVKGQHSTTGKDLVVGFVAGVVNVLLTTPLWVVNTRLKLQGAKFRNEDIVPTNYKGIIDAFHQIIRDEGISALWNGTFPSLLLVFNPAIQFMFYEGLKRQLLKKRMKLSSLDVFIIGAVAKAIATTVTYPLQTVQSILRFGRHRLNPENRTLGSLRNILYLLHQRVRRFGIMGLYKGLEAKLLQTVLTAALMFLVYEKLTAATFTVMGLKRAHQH
UniProt Q96DW6: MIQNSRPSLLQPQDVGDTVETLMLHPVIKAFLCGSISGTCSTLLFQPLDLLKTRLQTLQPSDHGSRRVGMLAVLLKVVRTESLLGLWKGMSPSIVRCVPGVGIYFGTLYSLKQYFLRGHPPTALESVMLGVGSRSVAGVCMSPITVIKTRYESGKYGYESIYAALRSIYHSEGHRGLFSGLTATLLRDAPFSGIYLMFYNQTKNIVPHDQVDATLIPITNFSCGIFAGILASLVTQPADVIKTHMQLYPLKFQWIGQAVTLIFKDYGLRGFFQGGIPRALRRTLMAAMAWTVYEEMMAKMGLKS
UniProt O00193: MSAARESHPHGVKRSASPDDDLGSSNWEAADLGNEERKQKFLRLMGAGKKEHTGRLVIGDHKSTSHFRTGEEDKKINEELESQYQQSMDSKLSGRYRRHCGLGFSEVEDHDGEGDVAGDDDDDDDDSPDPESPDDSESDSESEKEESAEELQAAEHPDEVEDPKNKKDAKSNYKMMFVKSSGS
UniProt P08195: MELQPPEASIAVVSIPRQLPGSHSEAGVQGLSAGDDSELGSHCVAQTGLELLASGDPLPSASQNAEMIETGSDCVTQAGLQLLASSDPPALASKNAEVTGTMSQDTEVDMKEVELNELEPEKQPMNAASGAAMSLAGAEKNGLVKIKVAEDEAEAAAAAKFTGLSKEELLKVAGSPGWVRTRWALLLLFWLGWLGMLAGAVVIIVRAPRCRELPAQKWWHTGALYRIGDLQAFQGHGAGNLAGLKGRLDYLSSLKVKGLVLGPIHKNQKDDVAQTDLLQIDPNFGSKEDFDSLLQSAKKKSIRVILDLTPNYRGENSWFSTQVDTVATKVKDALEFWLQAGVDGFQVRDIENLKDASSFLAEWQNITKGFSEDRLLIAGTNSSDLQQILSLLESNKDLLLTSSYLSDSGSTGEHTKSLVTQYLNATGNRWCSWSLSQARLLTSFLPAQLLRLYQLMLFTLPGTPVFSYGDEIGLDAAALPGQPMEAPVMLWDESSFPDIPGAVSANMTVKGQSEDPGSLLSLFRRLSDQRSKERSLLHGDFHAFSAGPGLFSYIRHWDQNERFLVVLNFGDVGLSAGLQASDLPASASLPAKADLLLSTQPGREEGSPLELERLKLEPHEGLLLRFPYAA
UniProt Q6P1K1: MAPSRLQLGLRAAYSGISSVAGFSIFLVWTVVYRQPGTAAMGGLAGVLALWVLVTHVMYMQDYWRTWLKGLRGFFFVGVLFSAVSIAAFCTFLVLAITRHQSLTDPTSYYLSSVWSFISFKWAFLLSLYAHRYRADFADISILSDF
UniProt Q15599: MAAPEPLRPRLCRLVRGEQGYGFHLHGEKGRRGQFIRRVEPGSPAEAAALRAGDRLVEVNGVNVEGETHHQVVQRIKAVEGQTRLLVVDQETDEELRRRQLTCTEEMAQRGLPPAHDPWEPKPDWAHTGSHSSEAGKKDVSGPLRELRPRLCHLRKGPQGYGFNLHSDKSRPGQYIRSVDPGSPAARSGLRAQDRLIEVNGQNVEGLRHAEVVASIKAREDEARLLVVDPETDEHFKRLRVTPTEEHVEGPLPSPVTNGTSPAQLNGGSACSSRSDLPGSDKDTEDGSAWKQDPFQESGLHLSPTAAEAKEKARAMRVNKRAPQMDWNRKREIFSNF

[1] = compound: CC(=O)c1cnc2ccc(-c3cc(Cl)c(O)c(Cl)c3)nc2c1N[C@H]1CC[C@H](CN(C)C)CC1
Outline: as §1

ralimetinib = compound: CC(C)(C)Cn1c(N)nc2ccc(-c3[nH]c(C(C)(C)C)nc3-c3ccc(F)cc3)nc21 [ralimetinib]
Outline: as §1

[2] = compound: CC(C)(O)CC(=O)NCCn1ccc2ncnc(Nc3ccc(Oc4cccc(C(F)(F)F)c4)c(Cl)c3)c21
Outline: as §1

[3] = compound: CC(C)C1=C2N=C(C=C(N2N=C1)NCC3=CC=CC=C3)NCCCCCCN
Outline: as §1

[4] = compound: CC1=C(C(CC(=O)N1)C2=CC=C(C=C2)C(F)(F)F)C(=O)NC3=C(C=C4C(=C3)C=NN4)F
Outline: as §1

[5] = compound: CC1=C(C2=C(C=C1)C(=O)C3=CC=CC=C3N2CCCN)C
Outline: as §1

[6] = compound: CC1=C(C=C(C=C1)NC(=O)C2=CC(=CC=C2)C(C)(C)C#N)NC3=CC4=C(C=C3)N=CN(C4=O)C
Outline: as §1

[7] = compound: CC1=C(C=C(C=C1)NC(=O)C2=CC(=CC=C2)N(C)C)NC(=O)C3=CC=C(C=C3)O
Outline: as §1

[8] = compound: CC1=CC=C(C=C1)SC2=C3C=C(SC3=CN=C2)C(=O)N
Outline: as §1

vemurafenib = compound: CCCS(=O)(=O)Nc1ccc(F)c(C(=O)c2c[nH]c3ncc(-c4ccc(Cl)cc4)cc23)c1F [vemurafenib]
Outline: as §1

[9] = compound: CCCS(=O)(=O)Nc1ccc(F)c(C(=O)c2c[nH]c3ncc(Cl)cc23)c1F
Outline: as §1

barasertib = compound: CCN(CCCOc1ccc2c(Nc3cc(CC(=O)Nc4cccc(F)c4)[nH]n3)ncnc2c1)CCOP(=O)(O)O [barasertib]
Outline: as §1

[10] = compound: CC[C@@H]1C(=O)N(C)c2cnc(Nc3ccc(C(=O)NC4CCN(C)CC4)cc3OC)nc2N1C1CCCC1
Outline: as §1

volasertib = compound: CC[C@@H]1C(=O)N(C)c2cnc(Nc3ccc(C(=O)N[C@H]4CC[C@H](N5CCN(CC6CC6)CC5)CC4)cc3OC)nc2N1C(C)C [volasertib]
Outline: as §1

[11] = compound: CCn1c(C(=O)N(C2CC2)C2CC2)cc2c3c(ncn3C)c(Nc3cc(C)n(C)n3)nc21
Outline: as §1

[12] = compound: CCn1cc(-c2ccnc3[nH]c(-c4cccc(CN(C)C)c4)cc23)c(-c2ccc(NC(=O)N(C)C)cc2)n1
Outline: as §1

[13] = compound: CN1CCC(CNc2ccc3ncc(-c4cccc(OC(F)(F)F)c4)n3n2)CC1
Outline: as §1

saracatinib = compound: CN1CCN(CCOc2cc(OC3CCOCC3)c3c(Nc4c(Cl)ccc5c4OCO5)ncnc3c2)CC1 [saracatinib]
Outline: as §1

sotrastaurin = compound: CN1CCN(c2nc(C3=C(c4c[nH]c5ccccc45)C(=O)NC3=O)c3ccccc3n2)CC1 [sotrastaurin]
Outline: as §1

Measured: log2 fold change

SLC29A1 isoform 2 (UniProt Q99808)
inactive: ibrutinib -0.013 | [1] -0.045 | ralimetinib 0.077 | [2] -0.041 | [3] -0.012 | [4] 0.001 | [5] 0 | [6] 0.046 | [7] -0.02 | [8] -0.017 | vemurafenib 0.036 | [9] 0.013 | barasertib -0.021 | [10] 0.043 | volasertib 0.033 | [11] -0.002 | [12] 0.073 | [13] 0.121 | saracatinib 0.102 | sotrastaurin 0.003

SLC25A25 isoform 3 (UniProt Q6KCM7)
inactive: ibrutinib -0.015 | [1] -0.028 | ralimetinib 0.011 | [2] 0.021 | [3] 0.018 | [4] 0.022 | [5] -0.036 | [6] 0.017 | [7] -0.012 | [8] 0.034 | vemurafenib -0.011 | [9] -0.012 | barasertib 0.004 | [10] 0.012 | volasertib 0.03 | [11] 0.007 | [12] -0.012 | [13] -0.053 | saracatinib 0.016 | sotrastaurin -0.016

SLC25A5 (UniProt P05141)
inactive: ibrutinib -0.067 | [1] -0.013 | ralimetinib -0.006 | [2] 0.029 | [3] -0.005 | [4] 0.001 | [5] -0.04 | [6] -0.001 | [7] 0.016 | [8] 0.034 | vemurafenib 0.012 | [9] 0.019 | barasertib -0.05 | [10] 0.058 | volasertib 0.032 | [11] -0.031 | [12] 0.17 | [13] -0.113 | saracatinib 0.038 | sotrastaurin -0.027

SLC7A6OS (UniProt Q96CW6)
inactive: ibrutinib 0.04 | [1] -0.003 | ralimetinib 0.01 | [2] -0.024 | [3] -0.021 | [4] -0.027 | [5] 0.009 | [6] 0.036 | [7] 0.025 | [8] -0.017 | vemurafenib -0.001 | [9] 0.014 | barasertib -0.004 | [10] 0.049 | volasertib -0.003 | [11] -0.04 | [12] -0.1 | [13] 0.05 | saracatinib 0.028 | sotrastaurin -0.028

SLC30A10 (UniProt Q6XR72)
inactive: ibrutinib 0.059 | [1] 0.015 | ralimetinib 0.05 | [2] 0 | [3] -0.098 | [4] 0.172 | [5] -0.047 | [6] 0.052 | [7] 0.01 | [8] -0.032 | vemurafenib -0.09 | [9] 0.021 | barasertib 0.142 | [10] 0.1 | volasertib -0.01 | [11] -0.043 | [12] -0.079 | [13] -0.146 | saracatinib -0.043 | sotrastaurin 0.006

SLC27A2 (UniProt O14975)
inactive: ibrutinib 0.243 | [1] -0.024 | ralimetinib -0.013 | [2] 0.245 | [3] 0.11 | [4] -0.041 | [5] -0.035 | [6] 0.069 | [7] -0.089 | [8] 0.031 | vemurafenib 0.089 | [9] 0.009 | barasertib 0.029 | [10] -0.033 | volasertib -0.084 | [11] -0.063 | [12] -0.024 | [13] 0.082 | saracatinib -0.021 | sotrastaurin 0.159

SLC25A40 (UniProt Q8TBP6)
inactive: ibrutinib 0.048 | [1] 0.003 | ralimetinib 0.031 | [2] -0.065 | [3] -0.037 | [4] 0.015 | [5] -0.022 | [6] 0.027 | [7] 0 | [8] -0.009 | vemurafenib 0.059 | [9] -0.012 | barasertib -0.023 | [10] 0.108 | volasertib 0.025 | [11] -0.047 | [12] 0.154 | [13] -0.147 | saracatinib 0.006 | sotrastaurin -0.02

SLC7A2 isoform 3 (UniProt P52569)
inactive: ibrutinib 0.022 | [1] -0.029 | ralimetinib 0.052 | [2] 0.032 | [3] -0.033 | [4] 0.031 | [5] -0.186 | [6] 0.049 | [7] -0.051 | [8] 0.007 | vemurafenib -0.303 | [9] 0.009 | barasertib 0.049 | [10] 0.187 | volasertib 0.027 | [11] -0.115 | [12] -0.037 | [13] 0.23 | saracatinib 0.022 | sotrastaurin 0.037

SLC33A1 (UniProt O00400)
inactive: ibrutinib 0.047 | [1] -0.008 | ralimetinib 0.024 | [2] -0.066 | [3] -0.014 | [4] -0.021 | [5] 0.051 | [6] -0.007 | [7] -0.014 | [8] -0.002 | vemurafenib 0.05 | [9] 0.023 | barasertib -0.015 | [10] -0.002 | volasertib 0.017 | [11] -0.004 | [12] -0.066 | [13] -0.005 | saracatinib 0 | sotrastaurin 0.003

SLC25A17 (UniProt O43808)
inactive: ibrutinib -0.007 | [1] -0.043 | ralimetinib 0.047 | [2] -0.019 | [3] 0.037 | [4] 0.001 | [5] 0.029 | [6] 0.03 | [7] -0.01 | [8] 0.044 | vemurafenib -0.035 | [9] -0.031 | barasertib 0.02 | [10] 0.066 | volasertib 0.04 | [11] -0.043 | [12] -0.119 | [13] 0.103 | saracatinib 0.041 | sotrastaurin 0.015

SLC25A38 (UniProt Q96DW6)
inactive: ibrutinib 0.061 | [1] -0.108 | ralimetinib -0.074 | [2] -0.003 | [3] -0.114 | [4] -0.153 | [5] -0.437 | [6] 0.002 | [7] 0.115 | [8] 0.04 | vemurafenib 0.037 | [9] 0.013 | barasertib -0.005 | [10] 0.209 | volasertib 0.012 | [11] 0.015 | [12] -0.055 | [13] 0.067 | saracatinib -0.127 | sotrastaurin 0.07

SMAP (UniProt O00193)
inactive: ibrutinib 0 | [1] 0.025 | ralimetinib 0.014 | [2] -0.028 | [3] -0.033 | [4] -0.058 | [5] -0.011 | [6] -0.086 | [7] -0.017 | [8] -0.034 | vemurafenib -0.044 | [9] 0.025 | barasertib -0.032 | [10] -0.034 | volasertib -0.007 | [11] -0.004 | [12] -0.024 | [13] 0.068 | saracatinib -0.007 | sotrastaurin -0.014

Quoted from the listing (2 entries):
SLC25A38 (UniProt Q96DW6)
inactive: ibrutinib 0.061 | [1] -0.108 | ralimetinib -0.074 | [2] -0.003 | [3] -0.114 | [4] -0.153 | [5] -0.437 | [6] 0.002 | [7] 0.115 | [8] 0.04 | vemurafenib 0.037 | [9] 0.013 | barasertib -0.005 | [10] 0.209 | volasertib 0.012 | [11] 0.015 | [12] -0.055 | [13] 0.067 | saracatinib -0.127 | sotrastaurin 0.07

SMAP (UniProt O00193)
inactive: ibrutinib 0 | [1] 0.025 | ralimetinib 0.014 | [2] -0.028 | [3] -0.033 | [4] -0.058 | [5] -0.011 | [6] -0.086 | [7] -0.017 | [8] -0.034 | vemurafenib -0.044 | [9] 0.025 | barasertib -0.032 | [10] -0.034 | volasertib -0.007 | [11] -0.004 | [12] -0.024 | [13] 0.068 | saracatinib -0.007 | sotrastaurin -0.014

Remaining list, next part:

SLC3A2 isoform 3 (UniProt P08195)
inactive: ibrutinib -0.005 | [1] -0.001 | ralimetinib -0.001 | [2] -0.03 | [3] -0.008 | [4] -0.009 | [5] -0.017 | [6] 0.017 | [7] 0.009 | [8] -0.031 | vemurafenib 0.012 | [9] -0.017 | barasertib -0.015 | [10] 0.042 | volasertib 0.037 | [11] -0.03 | [12] -0.016 | [13] 0.022 | saracatinib 0.013 | sotrastaurin 0.011

SLC48A1 (UniProt Q6P1K1)
inactive: ibrutinib -0.143 | [1] 0 | ralimetinib -0.084 | [2] -0.014 | [3] 0.008 | [4] -0.205 | [5] 0.019 | [7] -0.042 | [8] -0.234 | vemurafenib 0.056 | [9] 0.047 | barasertib -0.021 | [10] 0.001 | volasertib 0.12 | [11] 0.099 | [12] -0.15 | [13] 0.111 | saracatinib 0.056

SLC9A3R2 (UniProt Q15599)
inactive: ibrutinib 0.003 | [1] -0.001 | ralimetinib -0.01 | [2] -0.034 | [3] -0.018 | [4] 0.004 | [5] -0.015 | [6] -0.002 | [7] -0.006 | [8] -0.018 | vemurafenib 0.009 | [9] 0.018 | barasertib -0.001 | [10] 0.046 | volasertib 0.022 | [11] -0.009 | [12] -0.153 | [13] 0.023 | saracatinib 0.052 | sotrastaurin 0.007
